{"sequences": {"note": "By UniProt entry, the sequences of proteins in these tests, tags left out. Where a name states a change or a piece, a line headed by the entry shows the natural chain unless it says otherwise.", "UniProt Q99677": "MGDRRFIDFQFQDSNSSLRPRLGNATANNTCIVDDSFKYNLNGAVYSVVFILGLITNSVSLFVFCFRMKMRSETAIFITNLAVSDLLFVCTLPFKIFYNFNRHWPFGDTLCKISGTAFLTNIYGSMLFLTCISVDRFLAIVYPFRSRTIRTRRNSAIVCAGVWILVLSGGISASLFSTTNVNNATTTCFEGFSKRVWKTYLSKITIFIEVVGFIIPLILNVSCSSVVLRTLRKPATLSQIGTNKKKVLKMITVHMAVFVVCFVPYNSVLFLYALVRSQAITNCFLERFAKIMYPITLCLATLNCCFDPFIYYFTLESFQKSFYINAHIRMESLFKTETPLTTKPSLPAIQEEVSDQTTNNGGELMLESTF"}, "source": "patent US7666611B2", "about": "“Lysophosphatidic acid receptor” (Japan Science and Technology Agency, priority 2003, dated 2010)", "key": {"[1]": {"target": "T1, p2y9 (Homo sapiens, UniProt Q99677)", "T1 construct": "expressed in transfected cells", "assay": "Luciferase assay (zif promoter) in PC-12 cells transfected with p2y9", "type": "cell-based", "conditions": "various LPA concentrations, 6 hours, FIG. 29"}, "[2]": {"target": "T1, p2y9", "assay": "Lipid/nucleotide-induced intracellular calcium change in CHO clones (Fluo-3, FLEXstation)", "type": "cell-based"}, "[3]": {"target": "T1, p2y9", "assay": "LPA-induced intracellular cAMP change in CHO clone, with or without PTX and forskolin", "type": "cell-based"}, "[4]": {"target": "T1, p2y9", "assay": "Tritium labeled LPA binding to membrane fractions of transfected RH7777 or B103 cells", "conditions": "1, 3, 10 nM tritium labeled LPA; 4° C. 60 minutes; RH7777 and B103 cells; FIGS. 21 and 24"}, "[5]": {"target": "T1, p2y9", "assay": "Intracellular cAMP change in CHO clones with lipids or nucleotides (AlphaScreen)", "type": "cell-based", "conditions": "CHO cells expressing p2y9; 50 μM forskolin; room temperature 30 minutes; FIG. 8"}, "[6]": {"target": "T1, p2y9", "assay": "Kinetic analysis of LPA binding to p2y9, RH7777 membrane fractions", "conditions": "tritium labeled LPA, 4° C. 60 minutes, FIG. 28"}, "[7]": {"target": "T2, p2y5 (Homo sapiens, UniProt P43657)", "T2 construct": "expressed in transfected cells", "T2 sequence (P43657 1-344)": "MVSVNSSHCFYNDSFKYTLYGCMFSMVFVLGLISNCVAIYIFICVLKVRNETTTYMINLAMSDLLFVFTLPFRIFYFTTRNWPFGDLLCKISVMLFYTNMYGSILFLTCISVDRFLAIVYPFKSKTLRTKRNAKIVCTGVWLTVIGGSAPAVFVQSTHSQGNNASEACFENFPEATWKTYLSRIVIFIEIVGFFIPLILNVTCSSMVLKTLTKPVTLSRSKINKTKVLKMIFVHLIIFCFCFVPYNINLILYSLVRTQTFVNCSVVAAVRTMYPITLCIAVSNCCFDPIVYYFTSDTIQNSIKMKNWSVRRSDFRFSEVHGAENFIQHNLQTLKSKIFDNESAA", "assay": "LPA-induced intracellular cAMP change in CHO clone, with or without PTX and forskolin", "type": "cell-based", "conditions": "various LPA concentrations"}, "[8]": {"target": "T1, p2y9", "assay": "Intracellular calcium increase in four CHO clones stably expressing p2y9 (Fura-2)", "type": "cell-based", "conditions": "various LPA concentrations; clones #01, #09, #15, #20 vs empty-vector CHO cells; FIGS. 11 to 14", "procedure": "Then the investigation with respect to CHO clone has been carried out. Experiment of calcium incorporation was conducted in four independent CHO clones, #01, #09, #15 and #20, stably expressing p2y9. […] As a negative control, CHO cells which acquired neomycin resistance by transfected only with pCXN2.1 vector were used.\nFour types of CHO clones, #01, #09, #15 and #20, stably expressing p2y9 were incubated for 24 hours in the medium of Ham's F-12 supplemented with 0.1% BSA in replacement of Ham's F-12 supplemented with 10% fetal bovine serum. The cells were then suspended in HEPES-Tyrode's buffer (140 mM NaCl, 2.7 mM KCl, 1 mM CaCl2, 12 mM NaHCO3, 5.6 mM D-glucose, 0.49 mM MgCl2, 0.37 mM NaH2PO4, and 25 mM HEPES-NaOH (pH 7.4)) containing 3 μM Fura-2 (calcium indicator) and 0.01% Cremophor EL. Cells were incubated at 37° C. for 1 hour for incorporation of Fura-2. Cells were then resuspended in HEPES-Tyrode's buffer in order to achieve a cell density of 1×10^6 cells/ml. The changes in intracellular concentrations with addition of various concentrations of LPAs were monitored by using CAF-100 spectrofluorometer (Jasco, Tokyo, Japan). As a negative control, CHO cells which acquired neomycin resistance by transfected only with pCXN2.1 vector were used."}}, "note": "“Also recorded” adds a separate entry of the source. At least one compound was matched to its structure with a doubt left."}
{"smiles": "CCCCCCCC/C=C\\CCCCCCCC(=O)OC[C@@H](O)COP(=O)(O)O", "note": "[LPA, 1-oleoyl-LPA]", "values": [{"measurement": "firefly luciferase activity versus Renilla luciferase activity", "setting": "[1]", "value": "exhibits reactivity with LPA in a concentration dependent manner"}, {"measurement": "calcium concentration change (RFU)", "setting": "[2]; LPA 10 μM, CHO clones of GPR34, p2y5, p2y9, p2y10, FIG. 3", "value": "induced an increase in calcium concentration specifically in p2y9 only"}, {"measurement": "change in intracellular calcium concentration", "setting": "[2]; screening of lipids (1 to 10 μM), CHO clone expressing p2y9", "value": "specific to the expressed receptors was recognized; also recorded: A significant change in calcium concentration"}, {"measurement": "change in cAMP concentration", "setting": "[3]; in the presence of forskolin (5 μM)", "value": "enhanced in the presence of forskolin"}, {"measurement": "change in cAMP concentration", "setting": "[3]; in the presence of pertussis toxin (PTX)", "value": "the increase in cAMP concentration was enhanced"}, {"measurement": "change in cAMP concentration", "setting": "[3]; various LPA concentrations, absence of PTX", "value": "induced an increase in cAMP concentration"}, {"measurement": "specific binding of tritium labeled LPA", "setting": "[4]", "value": "specifically bind to LPA"}, {"measurement": "change in intracellular cAMP concentration", "setting": "[5]", "value": "significant increase in cAMP concentration"}, {"measurement": "Bmax", "setting": "[6]", "value": 37.3, "unit": "pmol/mg protein"}, {"measurement": "change in cAMP concentration", "setting": "[7]", "value": "did not"}, {"measurement": "increase in intracellular calcium concentration", "setting": "[8]", "value": "more significant increase in intracellular calcium concentration LPA concentration-dependently"}]}
